Reference: US12678412B2, “Substituted tolans for the modulation of microbial colonization” (BioMendics, LLC, priority 2017, dated 2026)
For at least one compound, name, drawing or mass did not settle the structure.

System: S. typhimurium TA100
Test: Dose range finding colony forming assay, strain TA100 with metabolic activation
Format: cell-based
Conditions: positive control, 2 μg/plate
Experimental: A series of dose range finding assays were performed with five bacterial strains, S. typhimurium TA97a, TA98, TA100, TA1535, and E. coli WP2 uvrA pKM101, with and without metabolic activation at three plates per dose. The following doses, along with positive and negative controls, were tested: 5000, 2500, 1250, 500, 250, 125, 50, 20, 10, 5, 2, 1, and 0.2 μg/plate. The plates were evaluated for toxicity (a decrease in plate counts with increasing dose and/or a visible thinning of the background lawn) and for precipitation of the test article. Metabolic activation was included in some samples by adding phenobarbital/benzoflavone-induced rat liver S9 fractions with cofactors (S9 mix). Prior to use, freshly thawed aliquots of rat liver S9 were mixed with a sterile cofactor mix. The S9 mix contains a 10% liver S9 concentration and was refrigerated or stored on ice until used. […]
The pre-incubation method was used to perform the assay. […] Plates were counted with the Sorcerer (v. 2.2)/Ames Study Manager (v. 1.2.4) system from Perceptive Instruments (Suffolk, UK). […] Some plates were hand counted, e.g., if sample precipitate interferes with automatic counting or toxicity results in the formation of microcolonies, in which case, counts for these plates were entered into the spreadsheet manually. Plates were scored also with the extent of colonization by a post fix code.

In the case of `c1ccc2c(c1)cc1ccc3cccc4ccc2c1c34` [BAP_Moltox, Benzo(a) pyrene_Moltox, reference compound], the Individual colony counts is reported as 703, 721, 994.
